From article PMC6941992, “Polar recruitment of RLD by LAZY1-like protein during gravity signaling in root branch angle control” (Nature Communications, 2020) come the findings set out here.

Amino acid sequences for entries named in this document (tags omitted). A change or cut given only in a name is not applied to a line headed by its entry.
UniProt Q5XVG3: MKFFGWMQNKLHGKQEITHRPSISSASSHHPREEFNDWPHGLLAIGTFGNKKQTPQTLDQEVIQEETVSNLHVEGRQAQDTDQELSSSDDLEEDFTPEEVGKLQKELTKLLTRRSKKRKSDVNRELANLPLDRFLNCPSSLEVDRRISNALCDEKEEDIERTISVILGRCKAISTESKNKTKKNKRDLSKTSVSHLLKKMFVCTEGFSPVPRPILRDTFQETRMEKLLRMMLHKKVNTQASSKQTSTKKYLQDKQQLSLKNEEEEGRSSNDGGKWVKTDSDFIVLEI

These are yes or no findings as the source states them, for the method shown. Some results given as binding are weak or reduced against the parent protein; the word gives no strength. For some assays here: Tags and fused reporters may be left off the sequences shown.

Test [1] addresses RLD1 BRX domain, purified (Arabidopsis thaliana) (UniProt Q947D2). Briefly: SEC; gel filtration analysis of isolated BRX domains and of their complexes with LZY CCLs; both purified. Background: SEC sorts molecules by how far they enter the pores of the column.
Test [2] concerns the target T1, GST-LZY3 CCL (Arabidopsis thaliana) (UniProt Q5XVG3).
T1 sequence: KWVKTDSDFIVLEI
Briefly: pull-down; purified protein and GST-fusion protein mixed with glutathione sepharose 4B, 4 °C; eluates on SDS-PAGE; both purified.

B1: RLD1 BRX domain, purified (domain or fragment, UniProt Q947D2 1023-1078)
chain: AEWIEQYEPGVYITLVALHDGTRDLRRVRFSRRRFGEHQAETWWSENREKVYEKYN
B1: the figures for the binding result in test [1] and in test [2] were “no binding” and “binds”, respectively.
